According to PubChem BioAssay AID2417 (National Center for Advancing Translational Sciences (NCATS), 2010):
About 4,300 (3.1%) of roughly 140,000 compounds were called active. Inconclusive means that the source gave no clear call. Such entries were picked first, then a sample of the others.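 Rule for the calls: active = readout at or below -70, meaning at least 70% loss of cells showing the perinucleolar compartment, a nuclear body marking cancer cells; inconclusive = readout between -30 and a set limit; inactive = the rest.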

test: High Content Assay for Compounds that inhibit the Assembly of the Perinucleolar Compartment; conditions: PC3M PTB-GFP, PNC prevalence imaging, 16 h; at 10 µM; hits give low values;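 note: plate controls were DMSO wells for no effect and camptothecin positive control wells for full effect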
In short: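 Compounds are pinned in duplicate onto adhered PC3M cells stably expressing GFP-tagged PTB and incubated 16 h at 37 C. Cells are then fixed, nuclei stained with Hoechst, and PNC-positive cells counted.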

Row | Compound | activity change (PNC), negative = inhibition
1 | CCCCn1c(NC(=O)c2ccco2)c(S(=O)(=O)c2ccc(C)cc2)c2nc3ccccc3nc21 | inconclusive: -37%
2 | O=c1c2ccccc2nc(-c2ccccc2)n1Cc1ccco1 | inconclusive: -54.3%
3 | COc1ccc(CCNC(=O)c2cc(-c3ccccc3OC)on2)cc1OC | inconclusive: -37.4%
4 | CCOC(=O)N1CCN(c2c(NCCc3ccc(OC)c(OC)c3)c(=O)c2=O)CC1 | inactive: 11.8%
5 | Cn1c(SCC(=O)NCC2CCCO2)nc2c([nH]c3ccccc32)c1=O (stereo unspecified) | inconclusive: -35.5%
6 | CN(C)c1ccc(C=Nc2ccccc2)cc1 | inactive: -11.7%
7 | CCn1c(=O)c(C(=O)CN2CCN(S(=O)(=O)c3ccc(C)cc3C)CC2)c(N)n(Cc2ccccc2)c1=O | inconclusive: -77%
8 | COC(=O)c1ccc2c(c1)C(C)(C)C(/C=C/c1ccc(O)cc1)=[N+]2C | inconclusive: -37.2%
9 | Cn1c(=O)oc2cc(S(=O)(=O)N3CCCC(C(=O)NCc4cccs4)C3)ccc21 (stereo unspecified) | inconclusive: -50.7%
10 | COc1ccc(NC(=O)/C(C#N)=C\c2cc(C)n(-c3ccc4c(c3)OCO4)c2C)cc1 | active: -124%
11 | Cc1c(C#N)sc2nc(-c3ccccc3)nc(N3CCCC3)c12 | inconclusive: -32.4%
12 | O=C1c2ccccc2-c2nc3ccccc3nc21 | inconclusive: -38%
13 | CCOc1ccccc1C(=O)NC(CO)C(=O)O (stereo unspecified) | inconclusive: -65%
14 | CCN(CC)S(=O)(=O)c1ccc(N2CCOCC2)c(NC(=O)Cc2cccc3ccccc23)c1 | inactive: 45.9%
15 | Cc1nn(-c2ccccc2)c(Cl)c1C(=O)Nc1c(C)n(C)n(-c2ccccc2)c1=O | inactive: -19.2%
16 | O=C(CSc1oc(-c2ccccc2)nc1S(=O)(=O)c1ccc(F)cc1)NCC1CCCO1 (stereo unspecified) | active: -100%
17 | Cn1c(Cn2c(=O)sc3ccccc32)nnc1SCc1ccccn1 | inactive: -4.66%
18 | N#Cc1c(N2CCCC(O)C2)nc(N)c2c(N)nc3c(c12)CC(=O)N3C12CC3CC(CC(C3)C1)C2 (stereo unspecified) | inconclusive: -42.7%
19 | Cn1c(SCC#N)nnc1-c1cnccn1 | inconclusive: -48.8%

Row | Compound | activity change (PNC), negative = inhibition
20 | C#CCOCCOCCOCCNc1nc(N2CCN(C(=O)Cn3cc(CCCCN)nn3)CC2)nc(N2CCN(C(=O)Cn3cc(CCCCN)nn3)CC2)n1 | inconclusive: -43.3%
21 | CC(C)CN1C(=O)NC(NS(=O)(=O)c2ccc(N)cc2)(C(F)(F)F)C1=O (stereo unspecified) | inconclusive: -62%
22 | COc1ccc(-c2nn(-c3ccccc3)cc2CNC(=O)c2cccc([N+](=O)[O-])c2)cc1 | inconclusive: -36.5%
23 | C/C(CC(=O)Nc1ccc(Cl)cc1Cl)=N\NC(N)=S | inconclusive: -64%
24 | O=C(OCc1cnc(Cl)s1)c1ccccc1Cl | inactive: 44%
25 | O=C(Cc1cc(=O)[nH]c(=O)[nH]1)NCc1ccc(Cl)cc1 | inconclusive: -74.9%
26 | CCCCCCc1cc2cc(C(=O)NCc3ccccc3)c(=N)oc2cc1O | inconclusive: -31.7%
27 | Cn1c(NCCCN2CCOCC2)nc2c1c(=O)n(Cc1ccc(Cl)c(Cl)c1)c(=O)n2C | inconclusive: -54.4%
28 | Nc1nc(SCC(=O)NNc2c(Cl)cc(Cl)cc2Cl)n[nH]1 | inactive: 21.1%
29 | O=C(N/N=C/c1ccc[nH]1)c1cccc(Br)c1 | inconclusive: -54.4%
30 | Cc1ccc(-c2nn(C)c(=O)c3ccccc23)cc1CNC(=O)/C=C/c1ccccc1 | inconclusive: -51.3%
31 | O=C1CC(c2cccs2)Cc2nc(NCC3CCCO3)ncc21 (stereo unspecified) | inconclusive: -34.1%
32 | O=C(Cn1cncc1-c1ccc([N+](=O)[O-])cc1)Nc1ccccc1F | inactive: 26.2%
33 | COc1ccc(C2C(C(=O)NCCN(C)C)c3cc(OC)c(OC)cc3C(=O)N2C)cc1OC (stereo unspecified) | active: -81.2%
34 | CCOc1cc(Cl)c(S(=O)(=O)NCc2ccccn2)cc1Cl | inconclusive: -43.7%
35 | COc1ccc(C(=O)CSc2nc3ccccc3n2CC(=O)c2ccccc2)cc1 | inconclusive: -32.4%
36 | CCn1c(SCCOc2ccc(Cl)cc2)nnc1-c1cccs1 | inconclusive: -60.5%
37 | Cc1ccc(NC(=O)CSc2nc3ccccc3c3nc4ccccc4n23)cc1 | active: -108%
38 | Cc1oncc1-c1cn2ccccc2n1 | inconclusive: -34.9%

Row | Compound | activity change (PNC), negative = inhibition
39 | O=C1c2ccccc2C(=O)N1CCSc1nnc(-c2ccco2)n1Cc1ccccc1 | inconclusive: -43.5%
40 | O=C(CCCN1C(=O)CCC1=O)Nc1ccc2c(c1)OCO2 | inconclusive: -48.5%
41 | Cc1cccc(N=Nc2c(C)nn(-c3ccccc3)c2N)c1C | active: -134%
42 | CCOC(=O)NC(CC(=O)O)c1ccc(OC)cc1 (stereo unspecified) | active: -100%
43 | CC(C)CNC(=O)CCc1c[nH]c2ccccc12 | inconclusive: -55.7%
44 | COc1ccc(S(=O)(=O)Cc2ccc(C(=O)NC3CC3)o2)cc1 | inconclusive: -52%
45 | COc1ccc(OCc2nc(N)nc(Nc3ccccc3)n2)cc1 | inconclusive: -31.1%
46 | Cc1cc(C)cc(C(=O)N2CCCCCC2)c1 | inactive: 0.196%
47 | COc1ccc(NC(=O)CSc2nccc(C)n2)cc1 | inconclusive: -75.2%
48 | Cc1cc(C)c2c(c1)/C(=N/NS(=O)(=O)c1ccc(Br)cc1)CCC2 | inconclusive: -34.3%
49 | Cc1c(Nc2nc3ccccc3nc2NS(=O)(=O)c2cccs2)c(=O)n(-c2ccccc2)n1C | inconclusive: -53.8%
50 | O=C(O)CSCC(=O)c1ccccc1 | inactive: 5.5%
51 | Cc1cc(C(=O)Nc2ccc(S(=O)(=O)Nc3onc(C)c3C)cc2)c(C)o1 | inconclusive: -30.7%
52 | CCOc1ccc(C(CC(=O)O)NC(=O)c2ccco2)cc1OC (stereo unspecified) | inconclusive: -45.3%
53 | CC1Cc2nc(SCC(=O)Nc3ccc4c(c3)OCO4)n(CCc3ccccc3)c(=O)c2S1 (stereo unspecified) | inconclusive: -52.8%
54 | CCN1CCN(c2cc3c(nn2)Oc2ccccc2N3C)CC1 | inactive: 11.4%
55 | O=C(C1CCCO1)N1CCN(C(=S)Nc2cccc(Cl)c2)CC1 (stereo unspecified) | inconclusive: -33.7%
56 | Cc1sc(N2C(=O)C3C4C=CC(C4)C3C2=O)c(C#N)c1C (stereo unspecified) | inconclusive: -35.2%

A draw from above in order of SMILES length, largest number first:
Row | Compound | activity change (PNC), negative = inhibition
20 | C#CCOCCOCCOCCNc1nc(N2CCN(C(=O)Cn3cc(CCCCN)nn3)CC2)nc(N2CCN(C(=O)Cn3cc(CCCCN)nn3)CC2)n1 | inconclusive: -43.3%
32 | O=C(Cn1cncc1-c1ccc([N+](=O)[O-])cc1)Nc1ccccc1F | inactive: 26.2%
3 | COc1ccc(CCNC(=O)c2cc(-c3ccccc3OC)on2)cc1OC | inconclusive: -37.4%
